The supplement of paper PMC3334620
Whole data set: some 33,000 sequences, median “E-score (-0.5 to 0.5)” near -8e-05, cut for the highest 2% near 0.23. The list shows a part of the results.

These sequences were tested against T1, Nrg2 (UniProt P38082) (assay: PBM E-score (8-mer binding enrichment) (E-score (-0.5 to 0.5)); higher = stronger / more preferred TF binding). Details: protein concentration: 100 nM; construct: GST-full length.
T1 sequence: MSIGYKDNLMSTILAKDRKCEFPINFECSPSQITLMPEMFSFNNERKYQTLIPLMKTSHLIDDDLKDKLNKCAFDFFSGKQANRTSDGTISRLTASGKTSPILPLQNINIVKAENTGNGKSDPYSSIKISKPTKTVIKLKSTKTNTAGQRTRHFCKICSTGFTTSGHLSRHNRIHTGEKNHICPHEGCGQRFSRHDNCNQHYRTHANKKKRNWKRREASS
In short: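 The E-score, a modified Wilcoxon-Mann-Whitney statistic, was computed by the Universal PBM Analysis Suite for every ungapped eight-base word pooled with its reverse complement. Scans behind it were normalised with masliner after bound GST-tagged yeast transcription factors were detected with fluorescent anti-GST. The proteins, at about 100-200 nM, had been applied to universal all-10-mer Agilent arrays made double-stranded by primer extension.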

Sequence	PBM E-score
AAAGTATA	0.0838
ACAGTGGG	-0.0812
CCGTACGG	-0.142
ATAACGAA	0.187
CAAGGTTA	0.0225
CAGACCAA	0.0347
ACCTCCGC	0.00243
CAAGCACA	-0.17
AATAATTG	-0.0103
GTCGTGAA	-0.244
TGCCAGCA	-0.00651
GCGGTACC	-0.048
GAATTAGC	-0.00932
AACACACA	0.194
TGCGCAAA	0.1
AGAAGTAC	-0.0369
AAAGTAAT	0.0873
GAGATCAC	-0.0525
TCACAGCA	0.106
CCGATAGA	-0.0479
CAACAACG	-0.0956
CCTTTAGA	-0.136
CAGTAAAA	0.0186
ACGGTATC	0.123
ATCGTGAA	-0.0316

Three entries picked at random from those above:
Sequence	PBM E-score
TCACAGCA	0.106
AAAGTAAT	0.0873
TGCCAGCA	-0.00651

Following part

Sequence	PBM E-score
CCGTGGTA	-0.245
CCAGAAAA	0.0813
CTAATGAC	-0.125
AACGGCCC	-0.077
CATCATAA	0.0511
GCAATAGC	0.133
CTTCTTCA	-0.205
GGTCGACC	0.221
ATCAGTAA	0.0691
CGCAATGA	0.0431
CATGCCCG	-0.0456
GCAAAATA	0.0973
TAAGAATA	-0.0925
ATGCGTCG	-0.0307
ACAGAGTG	0.00388
AGAATAAA	0.112
AGGGACAT	0.301
GACGGCTA	-0.105
GTGCCTAA	-0.17
AATGATAT	0.187
AGTCCTGC	-0.194
CTGAGCAC	-0.0285
CCCCCTGC	-0.303
AACTATCT	0.122
AACTGAAT	-0.0545

Sequence	PBM E-score
CTCGTCGA	0.121
GCCTCCCC	-0.12
AAGGGGTC	0.239
GCAGACGC	0.0055
GAGGTACA	-0.0653
CTATTCGC	0.0444
GTAATCAA	0.181
CAACTTGG	0.116
AGGGTGAG	-0.137
AGAGTACT	0.00951
CGACATTC	0.0567
ATATCCTC	0.155
CTATATCC	-0.025
GACCTTAA	-0.11
AGGGTGAC	-0.0626
CGGCAAGC	-0.0117
CCGCACAG	0.0155
ATTCATAA	0.075
AGGCAATG	0.0339
CTCGTGCC	-0.00919
CCCTGGCG	0.19
CTGCTGGA	0.0147
CCATGACA	0.0793
ACAAGCCA	0.00278
CAGTATCG	-0.00531

Sequence	PBM E-score
ATAAACTC	0.11
ACCTATTA	0.0948
GAAGTCCC	-0.0916
GACGGGAA	0.00844
AGATTTCG	0.0985
AGAGTTGA	-0.073
CATTTCTA	-0.00265
GAACCCAC	0.109
ACCGGCCG	0.0168
TGTACCAA	-0.0629
GTGACCAA	0.118
CTCTGGCC	-0.0755
ATGATACG	0.0763
ATTGGCTA	0.0695
GTAACGTA	-0.0805
CTTTATCC	-0.0523
CTCGGCAA	-0.017
ACCGAAGA	0.0165
CAAGCAAC	0.0328
AATTCTAG	-0.027
AATCAATT	0.213
AGCTAGCG	0.00875
ATACGTCC	-0.148
AGGCACTA	-0.015
AGGATACC	-0.00401

No new results follow: entries from further up.
Sequence	PBM E-score
ATTGGCTA	0.0695
GTAACGTA	-0.0805
CTTTATCC	-0.0523
CTCGGCAA	-0.017
ACCGAAGA	0.0165

Remaining list, next part

Sequence	PBM E-score
AGTTTAGA	0.0577
ACAGATCC	0.033
ACAAGTCG	-0.201
AGGTGGAA	-0.0778
CCTATAAG	-0.0605
AAACACGT	-0.155
ACACCTTG	-0.0415
AACTCCCA	0.0924
AGGCCTAA	0.137
ATAATATG	0.198
CCGTTTTC	0.171
CCCCTGTC	-0.151
ACCTTGTA	-0.0587
GTCGGTGA	-0.137
GATCCCTA	0.017
CACGAAAA	0.116
CAAAACTA	0.107
AATCCTCA	0.0177
AAGCTGCC	-0.0372
CAACCGTA	-0.296
AAATAGCG	0.0976
GGATCGAA	-0.0362
CGCTATCA	-0.0404
GACGCACC	-0.00744
CCGAGAAC	0.0941

Sequence	PBM E-score
ACGCTGCA	-0.151
GCTCTCAC	-0.127
CCTCACCC	-0.112
AAGCTCAT	0.0806
AGGATCCA	-0.094
AACGCTAC	-0.119
AACCTCTT	0.0815
ATATCGTC	0.0583
GCAAATCA	0.137
CTCCGCTA	-0.0936
AAGTCCGC	-0.00618
CGCCTGCC	-0.168
GCTACCGA	-0.156
AGGTCCGG	-0.173
ACAGAACG	-0.0392
GAAAGTTC	-0.214
GAAGATTC	0.0833
AAGAGTTC	0.00919
GATCGAAA	0.108
TCCTTCGA	-0.115
ATAAGGTA	0.0215
GTACTCTA	0.0349
GCTGCCGA	-0.0879
CCGCCTAA	-0.0285
GAACACTC	0.0516

As entered above.
Entry of AGGTCCGG under PBM E-score: -0.173
Entry of CTCCGCTA under PBM E-score: -0.0936

Remaining list, next part

Sequence	PBM E-score
CTTTCGCC	-0.195
AGTAGGTA	-0.00752
ACAACGCT	-0.0257
TAACACAA	-0.0353
AGACAAGA	0.181
AACGTCCT	0.0158
AATTGCGA	0.0736
CGGTAGAC	0.0168
AATATCAA	0.0718
ACAGGTCC	0.0426
AGCTTGGA	0.058
ATCCGGAC	-0.16
GATAGAAC	0.0331
ATTGCTGA	0.118
AGATCTTC	-0.0494
ATTGGTTG	0.168
AAGAACGC	0.0465
CTCGAGCC	-0.0275
CCCGGGGA	-0.102
ATAAAAAT	0.122
CTGTAATA	0.119
ATTTACAC	0.00228
